PubChem BioAssay AID1508597 – Cure First, 2020
Aim: 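Survival screen with siRNA in ovarian cancer cells derived from patients, with or without rucaparib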 (primary screen). Cells: human ovarian carcinoma lines grown from tumours: OCI-P5x (papillary serous) and OCI-C5x (clear cell). Knock-down reagent: siRNA pool against human genes, 1.25 pmol siRNA per well. Duration: 72 h or 96 h, depending on the cell culture. Conditions: rucaparib 20 µM (about IC30) or vehicle, present until read-out. Rucaparib or vehicle: Rucaparib. Cell line: OCI-C5x (clear cell). Detection: 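Luminescent ATP-based viability assay read 72 or 96 h after transfection, depending on culture, given as normalised percent viability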. Scale: viability, normalised: higher = more viable cells remaining. Active means: 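Active when normalised viability falls below 80 percent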. Calls: active = viability under 80%; inactive = viability 80% or more.
This is a random part of the about 2,100 reagents, in one setting of the screen. 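Calls flag viability under 80% in either arm, not effects specific to rucaparib; the reference for percent is not stated.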 Unmarked entries are inactive. Not stated in the record: the 100% reference.

Target gene	technical replicate	viability, normalised (%)
SLC2A9	1	39 (active)
SLC2A9	2	39.1 (active)
SLC2A9	3	33.2 (active)
NR3C1 (nuclear receptor subfamily 3 group C member 1)	1	54.2 (active)
NR3C1 (nuclear receptor subfamily 3 group C member 1)	2	43.7 (active)
NR3C1 (nuclear receptor subfamily 3 group C member 1)	3	35 (active)
NFAM1 (NFAT activating protein with ITAM motif 1)	1	59.4 (active)
NFAM1 (NFAT activating protein with ITAM motif 1)	2	66.4 (active)
NFAM1 (NFAT activating protein with ITAM motif 1)	3	62.4 (active)
PIP5K1C (phosphatidylinositol-4-phosphate 5-kinase type 1 gamma)	1	51.2 (active)
PIP5K1C (phosphatidylinositol-4-phosphate 5-kinase type 1 gamma)	2	35.3 (active)
PIP5K1C (phosphatidylinositol-4-phosphate 5-kinase type 1 gamma)	3	67.5 (active)
SNAI1 (snail family transcriptional repressor 1)	1	59.7 (active)
SNAI1 (snail family transcriptional repressor 1)	2	49.6 (active)
SNAI1 (snail family transcriptional repressor 1)	3	49.7 (active)
H4C2 (H4 clustered histone 2)	1	61 (active)
H4C2 (H4 clustered histone 2)	2	31 (active)
H4C2 (H4 clustered histone 2)	3	48.9 (active)
KMT5C (lysine methyltransferase 5C)	1	80.3
KMT5C (lysine methyltransferase 5C)	2	65.6 (active)
KMT5C (lysine methyltransferase 5C)	3	50.1 (active)
MACROH2A1 (macroH2A.1 histone)	1	33.5 (active)
MACROH2A1 (macroH2A.1 histone)	2	37.4 (active)
MACROH2A1 (macroH2A.1 histone)	3	38.7 (active)
